Our source for the mCherry and percent effect values is the supplement of paper PMC8256030.

Values joined by “and” are separate entries in the source; they are usually repeats but may differ in a detail not shown here. Identical values can stand only once. Some of the results follow. Repeats in this data set agree poorly, so a single value says little.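 HEK293T cells were given each compound shortly before transfection with a reporter in which red mCherry is followed by the SARS-CoV-2 frameshift element and then GFP in the −1 frame, so GFP appears only after frameshifting.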

One experiment deals with SARS-CoV-2 -1 PRF reporter mCherry-FSE-GFP(-1). Put plainly: mCherry (red) intensity as percent of control; higher = higher upstream reporter expression. The following applies: 10 µM; 24 h; HEK293T.
`CCOc1ccc(NC(C)=O)cc1` [phenacetin] came in with a mCherry of 117%.
Same read-out and setting: then `CC(C)NCC(O)c1ccc2ccccc2c1` (stereo not given) [pronetalol], with 104% and 96.3%.
As to `C[C@@H]1[C@H](O)[C@@H](C)/C=C/C=C/C=C/C=C/C=C/C=C/C=C/[C@H](O[C@@H]2O[C@H](C)[C@@H](O)[C@H](N)[C@@H]2O)C[C@@H]2O[C@](O)(C[C@@H](O)C[C@@H](O)[C@H](O)CC[C@@H](O)C[C@@H](O)CC(=O)O[C@H]1C)C[C@H](O)[C@H]2C(=O)O` [amphotericin B], the mCherry is 87.9%.
Still for that read-out and setting: the same measure for `CC1=NN(c2ccccc2)C(=O)C1` [edaravone]: 97.6%; for `CC[C@H]1OC(=O)[C@H](C)[C@@H](O[C@H]2C[C@@](C)(OC)[C@@H](O)[C@H](C)O2)[C@H](C)[C@@H](O[C@@H]2O[C@H](C)C[C@H](N(C)C)[C@H]2O)[C@](C)(O)C[C@@H](C)CN(C)[C@H](C)[C@@H](O)[C@]1(C)O`: 100%; for `CCCCCCCCCCCCCCCC[N+](C)(C)C` [cetrimonium bromide]: 18.6%.
The same measure, in the same setting: the same measure for `Nc1ccc(S(=O)(=O)Nc2ccnn2-c2ccccc2)cc1` [sulfaphenazole]: 111%; for `CN(C)CCN(Cc1cccs1)c1ccccn1` [methapyrilene]: 99.1%; for `C[C@H]1O[C@@H](O[C@H]2[C@@H](O)C[C@H](O[C@H]3[C@@H](O)C[C@H](O[C@H]4CC[C@@]5(C)[C@H](CC[C@@H]6[C@@H]5C[C@@H](O)[C@]5(C)[C@@H](C7=CC(=O)OC7)CC[C@]65O)C4)O[C@@H]3C)O[C@@H]2C)C[C@H](O)[C@@H]1O`: 15.8%.
Same read-out and setting: then `CC(C)c1cc(C(C)C)c(CC(=O)NS(=O)(=O)Oc2c(C(C)C)cccc2C(C)C)c(C(C)C)c1` [avasimibe], with 57.7%; and `CC1=C(CC(=O)O)c2cc(F)ccc2/C1=C\c1ccc([S+](C)[O-])cc1` (stereo not given) [Sulindac], with 94.9%.
`COc1cc2c(cc1OC)CN(C(=O)[C@H](C)N[C@@H](CCc1ccccc1)C(=O)O)[C@H](C(=O)O)C2` [moexiprilat] came in with a mCherry of 87.3%.
The same measure, in the same setting: the same measure for `NC(CCC(=O)O)C(=O)O` (stereo not given): 99.1%.
Regarding `CCC(c1ccccc1)c1c(O)c2ccccc2oc1=O` (stereo not given) [Phenprocoumon], the mCherry was found to be 104%.
On the same count and under the same terms, then `Cc1oc2nc3c(c(NC(=O)CN4CCCC4=O)c2c1C)CCCC3` [coluracetam], with 106%.
Still for that read-out and setting: then `CN1CC2c3ccccc3Oc3ccc(Cl)cc3C2C1` (stereo not given) [Asenapine], with 121%; and `N=C(N)NCC1COC2(CCCCC2)O1` (stereo not given), with 86.8%.
The same measure, in the same setting: the same measure for `CN1c2cc(O)c(N=NC(N)=O)cc2CC1S(=O)(=O)O` (stereo not given) [carbazochrome sodium sulfonate]: 88.8%; for `CC(=O)OCC(=O)[C@@]1(O)CC[C@H]2[C@@H]3CCC4=CC(=O)CC[C@]4(C)[C@H]3C(=O)C[C@@]21C` [Cortisone acetate]: 89.4%; for `C[C@@H](c1nc(-c2ccc(C#N)cc2)cs1)[C@](O)(Cn1cncn1)c1cc(F)ccc1F` [isavuconazole]: 86.2%.
Take `Oc1c(Cl)cc(Cl)c2cccnc12`: the mCherry was determined as 130%.
On the same count and under the same terms, then `C=CCN1CCCC1CNC(=O)c1cc(S(N)(=O)=O)cc(OC)c1OC` (stereo not given) [veralipride], with 85.1%; and `CCOc1ccccc1OCC1CNCCO1` (stereo not given) [viloxazine], with 87.6%.
For the molecule `CCOC(=O)N1c2ccc(C(F)(F)F)cc2[C@@H](N(Cc2cc(C(F)(F)F)cc(C(F)(F)F)c2)C(=O)OC)C[C@H]1CC` [torcetrapib], the mCherry came out at 84.8%.
On the same count and under the same terms, the same measure for `Nc1nc(/C(=C/CC(=O)O)C(=O)N[C@@H]2C(=O)N3C(C(=O)O)=CCS[C@H]23)cs1`: 112%.

A further experiment has the same test system. Put plainly: percent effect, decrease of GFP/mCherry ratio (-1 PRF reporter) relative to controls; higher = stronger frameshift inhibition. The conditions noted are these: 10 µM; 24 h; HEK293T.
Consider `C[C@@H](O)[C@H](N)C(=O)O` [threonine], for which the percent effect is -4.01%.
Take `O=C(Nc1cccc2c(=O)cc(-c3nnn[nH]3)oc12)c1ccc(OCCCCc2ccccc2)cc1` [Pranlukast]: the percent effect is -1.47% and -0.96%.
Take `Clc1ccc(OCC2=NCCc3ccccc32)cc1` [famotine]: the percent effect is -6.67%.
On the same count and under the same terms, then `Nc1nc2c(c(=O)[nH]1)C[C@@H](CCc1ccc(C(=O)N[C@@H](CCC(=O)O)C(=O)O)cc1)CN2` [lometrexol], with -10.7%.
The same measure, in the same setting: the same measure for `CN(CC1(C)CCCO1)S(=O)(=O)c1ccc(Cl)c(S(N)(=O)=O)c1` (stereo not given) [mefruside]: 0.977%.
The same measure, in the same setting: then `N[C@@H](Cc1cc(I)c(Oc2cc(I)c(O)c(I)c2)c(I)c1)C(=O)O` [L-thyroxine], with -1.19%; and `COC(=O)Nc1nc2cc(C(=O)c3ccccc3)ccc2[nH]1` [mebendazole], with -5.76%.
For `C[n+]1ccccc1/C=N/O`, the percent effect is -2.98%.
`c1ccc2c(CC3=NCCN3)cccc2c1` [naphazoline]: the percent effect was 0.706% and -8.67%.
On the same count and under the same terms, then `CC1(C)S[C@@H]2[C@H](NC(=O)[C@H](NC(=O)N3CCNC3=O)c3ccccc3)C(=O)N2[C@H]1C(=O)O` [azlocillin], with -3.63%; and `NC1=NCC2c3ccccc3Cc3ccccc3N12` (stereo not given) [epinastine], with -1.82%; and `O=C(O)c1ccc[n+]([O-])c1`, with -0.177%.
On the same count and under the same terms, then `CC(C)C[C@H](NC(=O)[C@@H](O)[C@H](N)Cc1ccccc1)C(=O)O` [ubenimex], with -4%; and `C[C@]12C=CC(=O)C=C1CC[C@@H]1[C@@H]2[C@@H](O)C[C@@]2(C)[C@H]1CC[C@]2(O)C(=O)COC(=O)CCC(=O)O`, with -2.6%; and `O=S(=O)(O)CCCS(=O)(=O)O`, with -0.68%.
Still for that read-out and setting: then `CCOc1ccc(NC(C)=O)cc1` [phenacetin], with -4.58%; and `CC(C)NCC(O)c1ccc2ccccc2c1` (stereo not given) [pronetalol], with -2.22% and 0.399%; and `C[C@@H]1[C@H](O)[C@@H](C)/C=C/C=C/C=C/C=C/C=C/C=C/C=C/[C@H](O[C@@H]2O[C@H](C)[C@@H](O)[C@H](N)[C@@H]2O)C[C@@H]2O[C@](O)(C[C@@H](O)C[C@@H](O)[C@H](O)CC[C@@H](O)C[C@@H](O)CC(=O)O[C@H]1C)C[C@H](O)[C@H]2C(=O)O` [amphotericin B], with -4.75%.
In the case of `CC1=NN(c2ccccc2)C(=O)C1` [edaravone], the percent effect worked out at 1.67%.
On the same count and under the same terms, then `CC[C@H]1OC(=O)[C@H](C)[C@@H](O[C@H]2C[C@@](C)(OC)[C@@H](O)[C@H](C)O2)[C@H](C)[C@@H](O[C@@H]2O[C@H](C)C[C@H](N(C)C)[C@H]2O)[C@](C)(O)C[C@@H](C)CN(C)[C@H](C)[C@@H](O)[C@]1(C)O`, with -5.87%.
Take `CCCCCCCCCCCCCCCC[N+](C)(C)C` [cetrimonium bromide]: the percent effect is -19.2%.
For the molecule `Nc1ccc(S(=O)(=O)Nc2ccnn2-c2ccccc2)cc1` [sulfaphenazole], the percent effect was 2.48%.
Still for that read-out and setting: then `CN(C)CCN(Cc1cccs1)c1ccccn1` [methapyrilene], with -1.74%; and `C[C@H]1O[C@@H](O[C@H]2[C@@H](O)C[C@H](O[C@H]3[C@@H](O)C[C@H](O[C@H]4CC[C@@]5(C)[C@H](CC[C@@H]6[C@@H]5C[C@@H](O)[C@]5(C)[C@@H](C7=CC(=O)OC7)CC[C@]65O)C4)O[C@@H]3C)O[C@@H]2C)C[C@H](O)[C@@H]1O`, with -16.7%; and `CC(C)c1cc(C(C)C)c(CC(=O)NS(=O)(=O)Oc2c(C(C)C)cccc2C(C)C)c(C(C)C)c1` [avasimibe], with -11.6%.
In the case of `CC1=C(CC(=O)O)c2cc(F)ccc2/C1=C\c1ccc([S+](C)[O-])cc1` (stereo not given) [Sulindac], the percent effect was 1.91%.
The same measure, in the same setting: the same measure for `COc1cc2c(cc1OC)CN(C(=O)[C@H](C)N[C@@H](CCc1ccccc1)C(=O)O)[C@H](C(=O)O)C2` [moexiprilat]: 3.2%; for `NC(CCC(=O)O)C(=O)O` (stereo not given): -4.72%; for `CCC(c1ccccc1)c1c(O)c2ccccc2oc1=O` (stereo not given) [Phenprocoumon]: -6.96%.
Still for that read-out and setting: then `Cc1oc2nc3c(c(NC(=O)CN4CCCC4=O)c2c1C)CCCC3` [coluracetam], with -2.65%.
On to `CN1CC2c3ccccc3Oc3ccc(Cl)cc3C2C1` (stereo not given) [Asenapine], for which the percent effect was -0.0859%.
Still for that read-out and setting: the same measure for `N=C(N)NCC1COC2(CCCCC2)O1` (stereo not given): -1.6%.
Still for that read-out and setting: then `CN1c2cc(O)c(N=NC(N)=O)cc2CC1S(=O)(=O)O` (stereo not given) [carbazochrome sodium sulfonate], with -8.54%.
On the same count and under the same terms, then `CC(=O)OCC(=O)[C@@]1(O)CC[C@H]2[C@@H]3CCC4=CC(=O)CC[C@]4(C)[C@H]3C(=O)C[C@@]21C` [Cortisone acetate], with 1.26%; and `C[C@@H](c1nc(-c2ccc(C#N)cc2)cs1)[C@](O)(Cn1cncn1)c1cc(F)ccc1F` [isavuconazole], with -4.59%.
Consider `Oc1c(Cl)cc(Cl)c2cccnc12`, for which the percent effect was -0.443%.
On the same count and under the same terms, then `C=CCN1CCCC1CNC(=O)c1cc(S(N)(=O)=O)cc(OC)c1OC` (stereo not given) [veralipride], with -2.52%; and `CCOc1ccccc1OCC1CNCCO1` (stereo not given) [viloxazine], with 0.333%.
On the same count and under the same terms, then `CCOC(=O)N1c2ccc(C(F)(F)F)cc2[C@@H](N(Cc2cc(C(F)(F)F)cc(C(F)(F)F)c2)C(=O)OC)C[C@H]1CC` [torcetrapib], with -1.4%.
Same read-out and setting: then `Nc1nc(/C(=C/CC(=O)O)C(=O)N[C@@H]2C(=O)N3C(C(=O)O)=CCS[C@H]23)cs1`, with 0.303%.
